# Experimental data taken from patent publication US8293489B2, “Methods for detection of biological substances” (priority 2007, dated 2012).
# Assay: 96 plate colorimetric ELISA comparison of biological substances in various bodily fluids
# Design: species or system human
Molecule,concentration in NASAL MUCUS [ng/mL],concentration in PLASMA [ng/mL],concentration in SALIVA [ng/mL],concentration in URINE [pg/mL]
"Endostatin (protein, UniProt P39060 1572-1754, looked up, Endostatin) Endostatin: HSHRDFQPVLHLVALNSPLSGGMRGIRGADFQCFQQARAVGLAGTFRAFLSSRLQDLYSIVRRADRAAVPIVNLKDELLFPSWEALFSGSEGPLKPGARIFSFDGKDVLRHPTWPQKSVWHGSDPNGRRLTESYCETWRTEAPSATGQASSLLGGRLLGQSAASCHHAYIVLCIENSFMTASK",6.0 ± 1.3,102 ± 9,1.3 ± 0.3,400 ± 20
"Intercellular Adhesion Molecule 1 (ICAM-1) (protein, UniProt P05362 28-532, looked up) Intercellular adhesion …: QTSVSPSKVILPRGGSVLVTCSTSCDQPKLLGIETPLPKKELLLPGNNRKVYELSNVQEDSQPMCYSNCPDGQSTAKTFLTVYWTPERVELAPLPSWQPVGKNLTLRCQVEGGAPRANLTVVLLRGEKELKREPAVGEPAEVTTTVLVRRDHHGANFSCRTELDLRPQGLELFENTSAPYQLQTFVLPATPPQLVSPRVLEVDTQGTVVCSLDGLFPVSEAQVHLALGDQRLNPTVTYGNDSFSAKASVSVTAEDEGTQRLTCAVILGNQSQETLQTVTIYSFPAPNVILTKPEVSEGTEVTVKCEAHPRAKVTLNGVPAQPLGPRAQLLLKATPEDNGRSFSCSATLEVAGQLIHKNQTRELRVLYGPRLDERDCPGNWTWPENSQQTPMCQAWGNPLPELKCLKDGTFPLPIGESVTVTRDLEGTYLCRARSTQGEVTRKVTVNVLSPRYEIVIITVVAAAVIMGTAGLSTYLYNRQRKIKKYRLQQAQKGTPMKPNTQATPP",34 ± 4,126 ± 8,19 ± 1,
"Vascular Endothelial Growth Factor D (VEGF-D) (protein, UniProt O43915 89-205, looked up) Vascular endothelial growth …: FAATFYDIETLKVIDEEWQRTQCSPRETCVEVASELGKSTNTFFKPPCVNVFRCGGCCNEESLICMNTSTSYISKQLFEISVPLTSVPELVPVKVANHTGCKCLPTAPRHPYSIIRR",0.0292 ± 0.0082,0.469 ± 0.0574,0.0065 ± 0.0055,11.7 ± 7.9
"Vascular Endothelial Growth Factor - Receptor 1 (VEGF-R1) (protein, UniProt P17948 27-1338, looked up) Vascular endothelial growth …: SKLKDPELSLKGTQHIMQAGQTLHLQCRGEAAHKWSLPEMVSKESERLSITKSACGRNGKQFCSTLTLNTAQANHTGFYSCKYLAVPTSKKKETESAIYIFISDTGRPFVEMYSEIPEIIHMTEGRELVIPCRVTSPNITVTLKKFPLDTLIPDGKRIIWDSRKGFIISNATYKEIGLLTCEATVNGHLYKTNYLTHRQTNTIIDVQISTPRPVKLLRGHTLVLNCTATTPLNTRVQMTWSYPDEKNKRASVRRRIDQSNSHANIFYSVLTIDKMQNKDKGLYTCRVRSGPSFKSVNTSVHIYDKAFITVKHRKQQVLETVAGKRSYRLSMKVKAFPSPEVVWLKDGLPATEKSARYLTRGYSLIIKDVTEEDAGNYTILLSIKQSNVFKNLTATLIVNVKPQIYEKAVSSFPDPALYPLGSRQILTCTAYGIPQPTIKWFWHPCNHNHSEARCDFCSNNEESFILDADSNMGNRIESITQRMAIIEGKNKMASTLVVADSRISGIYICIASNKVGTVGRNISFYITDVPNGFHVNLEKMPTEGEDLKLSCTVNKFLYRDVTWILLRTVNNRTMHYSISKQKMAITKEHSITLNLTIMNVSLQDSGTYACRARNVYTGEEILQKKEITIRDQEAPYLLRNLSDHTVAISSSTTLDCHANGVPEPQITWFKNNHKIQQEPGIILGPGSSTLFIERVTEEDEGVYHCKATNQKGSVESSAYLTVQGTSDKSNLELITLTCTCVAATLFWLLLTLFIRKMKRSSSEIKTDYLSIIMDPDEVPLDEQCERLPYDASKWEFARERLKLGKSLGRGAFGKVVQASAFGIKKSPTCRTVAVKMLKEGATASEYKALMTELKILTHIGHHLNVVNLLGACTKQGGPLMVIVEYCKYGNLSNYLKSKRDLFFLNKDAALHMEPKKEKMEPGLEQGKKPRLDSVTSSESFASSGFQEDKSLSDVEEEEDSDGFYKEPITMEDLISYSFQVARGMEFLSSRKCIHRDLAARNILLSENNVVKICDFGLARDIYKNPDYVRKGDTRLPLKWMAPESIFDKIYSTKSDVWSYGVLLWEIFSLGGSPYPGVQMDEDFCSRLREGMRMRAPEYSTPEIYQIMLDCWHRDPKERPRFAELVEKLGDLLQANVQQDGKDYIPINAILTGNSGFTYSTPAFSEDFFKESISAPKFNSGSSDDVRYVNAFKFMSLERIKTFEELLPNATSMFDDYQGDSSTLLASPMLKRFTWTDSKPKASLKIDLRVTSKSKESGLSDVSRPSFCHSSCGHVSEGKRRFTYDHAELERKIACCSPPPDYNSVVLYSTPPI",1.532 ± 0.445,0.378 ± 0.037,0.492 ± 0.063,317 ± 39
"Ciliary Neurotrophic Factor (CNF) (protein, UniProt P26441 1-200, looked up) Ciliary neurotrophic factor: MAFTEHSPLTPHRRDLCSRSIWLARKIRSDLTALTESYVKHQGLNKNINLDSADGMPVASTDQWSELTEAERLQENLQAYRTFHVLLARLLEDQQVHFTPTEGDFHQAIHTLLLQVAAFAYQIEELMILLEYKIPRNEADGMPINVGDGGLFEKKLWGLKVLQELSQWTVRSIHDLRFISSHQTGIPARGSHYIANNKKM",0,0,0,0
"Endoglin (protein, UniProt P17813 26-658, looked up) Endoglin: ETVHCDLQPVGPERGEVTYTTSQVSKGCVAQAPNAILEVHVLFLEFPTGPSQLELTLQASKQNGTWPREVLLVLSVNSSVFLHLQALGIPLHLAYNSSLVTFQEPPGVNTTELPSFPKTQILEWAAERGPITSAAELNDPQSILLRLGQAQGSLSFCMLEASQDMGRTLEWRPRTPALVRGCHLEGVAGHKEAHILRVLPGHSAGPRTVTVKVELSCAPGDLDAVLILQGPPYVSWLIDANHNMQIWTTGEYSFKIFPEKNIRGFKLPDTPQGLLGEARMLNASIVASFVELPLASIVSLHASSCGGRLQTSPAPIQTTPPKDTCSPELLMSLIQTKCADDAMTLVLKKELVAHLKCTITGLTFWDPSCEAEDRGDKFVLRSAYSSCGMQVSASMISNEAVVNILSSSSPQRKKVHCLNMDSLSFQLGLYLSPHFLQASNTIEPGQQSFVQVRVSPSVSEFLLQLDSCHLDLGPEGGTVELIQGRAAKGNCVSLLSPSPEGDPRFSFLLHFYTVPIPKTGTLSCTVALRPKTGSQDQEVHRTVFMRLNIISPDLSGCTSKGLVLPAVLGITFGAFLIGALLTAALWYIYSHTRSPSKREPVVAVAAPASSESSSTNHSIGSTQSTPCSTSSMA",0.02 ± 0.06,27 ± 0.1,0,0
"E Selectin (protein, UniProt P16581 22-610, looked up) E-selectin: WSYNTSTEAMTYDEASAYCQQRYTHLVAIQNKEEIEYLNSILSYSPSYYWIGIRKVNNVWVWVGTQKPLTEEAKNWAPGEPNNRQKDEDCVEIYIKREKDVGMWNDERCSKKKLALCYTAACTNTSCSGHGECVETINNYTCKCDPGFSGLKCEQIVNCTALESPEHGSLVCSHPLGNFSYNSSCSISCDRGYLPSSMETMQCMSSGEWSAPIPACNVVECDAVTNPANGFVECFQNPGSFPWNTTCTFDCEEGFELMGAQSLQCTSSGNWDNEKPTCKAVTCRAVRQPQNGSVRCSHSPAGEFTFKSSCNFTCEEGFMLQGPAQVECTTQGQWTQQIPVCEAFQCTALSNPERGYMNCLPSASGSFRYGSSCEFSCEQGFVLKGSKRLQCGPTGEWDNEKPTCEAVRCDAVHQPPKGLVRCAHSPIGEFTYKSSCAFSCEEGFELHGSTQLECTSQGQWTEEVPSCQVVKCSSLAVPGKINMSCSGEPVFGTVCKFACPEGWTLNGSAARTCGATGHWSGLLPTCEAPTESNIPLVAGLSAAGLSLLTLAPFLLWLRKCLRKAKKFVPASSCQSLESDGSYQKPSYIL",0.58 ± 0.49,20.0 ± 4.5,0,0
"L Selectin (protein, UniProt P14151 39-372, looked up) L-selectin: WTYHYSEKPMNWQRARRFCRDNYTDLVAIQNKAEIEYLEKTLPFSRSYYWIGIRKIGGIWTWVGTNKSLTEEAENWGDGEPNNKKNKEDCVEIYIKRNKDAGKWNDDACHKLKAALCYTASCQPWSCSGHGECVEIINNYTCNCDVGYYGPQCQFVIQCEPLEAPELGTMDCTHPLGNFSFSSQCAFSCSEGTNLTGIEETTCGPFGNWSSPEPTCQVIQCEPLSAPDLGIMNCSHPLASFSFTSACTFICSEGTELIGKKKTICESSGIWSNPSPICQKLDKSFSMIKEGDYNPLFIPVAVMVTAFSGLAFIIWLARRLKKGKKSKRSMNDPY",25.35 ± 3.15,20.1 ± 1.4,0,0
"Macrophage Inhibitory Factor (MIF) (protein, UniProt P14174 2-115, looked up) Macrophage migration …: PMFIVNTNVPRASVPDGFLSELTQQLAQATGKPPQYIAVHVVPDQLMAFGGSSEPCALCSLHSIGKIGGAQNRSYSKLLCGLLAERLRISPDRVYINYYDMNAANVGWNNSTFA",0.135 ± 0.027,0.0028 ± 0.0002,0,0
"Keratinocyte Growth Factor (KGF) (protein, UniProt P21781 32-194, looked up) Fibroblast growth factor 7: CNDMTPEQMATNVNCSSPERHTRSYDYMEGGDIRVRRLFCRTQWYLRIDKRGKVKGTQEMKNNYNIMEIRTVAVGIVAIKGVESEFYLAMNKEGKLYAKKECNEDCNFKELILENHYNTYASAKWTHNGGEMFVALNQKGIPVRGKKTKKEQKTAHFLPMAIT",0.0152 ± 0.0029,0.0028 ± 0.0028,0,0
